These are yes or no findings as the source states them, for the method shown. For part of these data: Binding seen in cells or lysates may run through a third protein. Some results given as binding are weak or reduced against the parent protein; the word gives no strength.
Columns and labels:
[1] = biological target: FLAG-M2(D103A) (human) (UniProt P08172); experiment: sequential affinity co-purification (anti-FLAG resin and Ni2+-NTA); digitonin–cholate extract of co-transfected CHO cells passed successively over immobilised anti-FLAG antibody and Ni2+-NTA; eluted with FLAG peptide (100 μg/mL) and imidazole (150 mM); purified heteromer detected by binding of [3H]NMS
[2] = biological target: Human M2 muscarinic receptor bearing the c-Myc or FLAG epitope at the N-terminus (human) (UniProt P08172); experiment: co-IP; extract (digitonin–cholate) of Sf9 cells co-expressing FLAG- and c-Myc-tagged receptor; agarose-conjugated anti-FLAG antibody, overnight at 4°C; blot with anti-c-Myc antibody
[3] = biological target: Human M2 muscarinic receptor bearing the c-Myc or FLAG epitope at the N-terminus (human) (UniProt P08172); experiment: condition: only after purification on DEAE-Sepharose, ABT-Sepharose and hydroxyapatite; cross-linking; purified M2 receptor, BS3 2 mM, 30 min at 24°C; electrophoresis, western blot with anti-M2 antibody, densitometry; both purified

Amino acid sequences for entries named in this document (tags omitted). A change or cut given only in a name is not applied to a line headed by its entry. Chains listed by the source or under a name are the forms on record and can include a tag or linker.
UniProt P08172: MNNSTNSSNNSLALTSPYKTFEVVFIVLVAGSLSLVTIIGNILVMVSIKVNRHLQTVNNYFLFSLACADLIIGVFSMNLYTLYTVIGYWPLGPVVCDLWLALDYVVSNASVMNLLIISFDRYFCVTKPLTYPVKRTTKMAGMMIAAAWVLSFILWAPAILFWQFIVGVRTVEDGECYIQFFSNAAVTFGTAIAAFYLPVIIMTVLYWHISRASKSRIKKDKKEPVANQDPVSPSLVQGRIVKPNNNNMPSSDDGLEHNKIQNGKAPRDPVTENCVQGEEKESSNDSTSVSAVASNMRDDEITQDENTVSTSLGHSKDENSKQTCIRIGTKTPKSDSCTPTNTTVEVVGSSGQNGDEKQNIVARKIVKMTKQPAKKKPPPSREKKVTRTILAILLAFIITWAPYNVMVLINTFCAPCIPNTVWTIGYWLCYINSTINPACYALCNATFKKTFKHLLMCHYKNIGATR
His6-M2-ECL2+ve (P08172, form named): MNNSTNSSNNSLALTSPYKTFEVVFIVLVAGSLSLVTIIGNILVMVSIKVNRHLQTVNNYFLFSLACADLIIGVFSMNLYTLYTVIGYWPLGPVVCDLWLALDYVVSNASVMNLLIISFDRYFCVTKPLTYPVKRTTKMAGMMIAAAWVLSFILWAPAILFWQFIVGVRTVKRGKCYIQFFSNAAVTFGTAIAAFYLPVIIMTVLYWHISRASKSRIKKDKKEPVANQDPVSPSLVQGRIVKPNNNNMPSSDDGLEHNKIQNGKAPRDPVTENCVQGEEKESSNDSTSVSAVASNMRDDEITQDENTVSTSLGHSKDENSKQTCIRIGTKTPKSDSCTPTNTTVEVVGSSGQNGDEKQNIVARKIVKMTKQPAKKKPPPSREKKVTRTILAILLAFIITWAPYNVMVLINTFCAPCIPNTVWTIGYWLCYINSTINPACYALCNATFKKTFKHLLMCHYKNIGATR

binding [1] | binding [2] | binding [3] | Substance
binds |  |  | His6-M2-ECL2+ve (from UniProt P08172 1-466) (receptor)
 | binds | no binding | Human M2 muscarinic receptor bearing the c-Myc or FLAG epitope at the N-terminus (from UniProt P08172 1-466)
